## Percent effect of library compounds

Source: ChEMBL document CHEMBL3988442, “University of Dundee, Small-Polar-MMV Screening Library” (2021).

Results are given as percent effect. The record does not define 0% and 100%; most values in the screen are far below 50% and negative numbers occur (in some assays of this library far below -100). This is an unselected part of the compounds tested. Two or more numbers in one place are separate tests of the same structure; such repeats can differ widely.

Mtb cholesterol medium: 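Growth of Mycobacterium tuberculosis over 4 days (cholesterol / DPPC medium with tyloxapol); the read-out is not stated. Concentration: 50 µM. Direction is inferred from retests: higher values go with more growth inhibition. Size under these conditions: about 69,000 compounds, about 370 of them at 50% or above in at least one test.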
Mtb glucose medium: 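Whole-cell growth test on Mycobacterium tuberculosis, read after 3 days in glucose-containing 7H9 medium; the read-out is not stated. Concentration: 50 µM. Higher reads as more growth inhibition (inferred: compounds with an IC50 in retests scored well above the rest). Size under these conditions: about 69,000 compounds, about 760 of them at 50% or above in at least one test.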

* CN1CCCCC1(C)C(=O)N1CCC(c2ccccn2)CC1 (stereo unspecified) | Mtb cholesterol medium: -7.598% & -7.917%; Mtb glucose medium: 13.17%
* Cc1n[nH]c(SCCNC2CCN(c3nc4ccccc4s3)CC2)n1 | Mtb cholesterol medium: 9.879%; Mtb glucose medium: 19.26%
* COCCCNC(=O)N1CCCC(c2nncn2C)C1 (stereo unspecified) | Mtb cholesterol medium: -11.17%; Mtb glucose medium: 7.57%
* COc1ccccc1N1CCC(CNC(=O)CN2CSCC2=O)C1 (stereo unspecified) | Mtb cholesterol medium: -5.319%; Mtb glucose medium: 7.745%
* CC(C)(C)n1ncc2c1NC(=O)CC2c1cccc(O)c1 (stereo unspecified) | Mtb cholesterol medium: -14.9%; Mtb glucose medium: -13.52%
* CCc1nc(C2CCCN2CCCSC)no1 (stereo unspecified) | Mtb cholesterol medium: 10.05%; Mtb glucose medium: 15.01%
* O=C(O)C(F)(F)F.[H][C@@]12CCN(Cc3cnn(C)c3)[C@@]1([H])CCN2C(=O)c1cccc(F)c1 | Mtb cholesterol medium: -8.79% & -10.99%; Mtb glucose medium: -1.987%
* CC(=O)N1CCC2(CCCN(C(=O)CCN3CCCCC3)C2)C1 (stereo unspecified) | Mtb cholesterol medium: -0.9087%; Mtb glucose medium: 16.13%
* CCC(C)C(=O)N(Cc1ccccn1)C1CC1 (stereo unspecified) | Mtb cholesterol medium: -9.071%; Mtb glucose medium: 3.366% & -13.7%
* CC(C(=O)N1CCN(CCOc2ccccc2)CC1)n1cc(Cl)cn1 (stereo unspecified) | Mtb cholesterol medium: -6.871%; Mtb glucose medium: 11.84%
* Cc1ccc(N2CCCC(NCc3ccccn3)C2)nn1 (stereo unspecified) | Mtb cholesterol medium: -31.79%; Mtb glucose medium: 4.199%
* NC(=O)c1c[nH]nc1NC(=O)c1cccc(Cl)c1 | Mtb cholesterol medium: -12.55%; Mtb glucose medium: 4.718%
* CCOCC(O)CN1CCN(C(=O)c2cc(F)ccc2C)CC1 (stereo unspecified) | Mtb cholesterol medium: -0.02931%; Mtb glucose medium: -15.76%
* Cc1ccc(C)c(OC2CCN(C(=O)c3ccc(C)[nH]c3=O)CC2)c1 | Mtb cholesterol medium: 9.377%; Mtb glucose medium: 8.446%
* COc1ccc(-c2noc([C@@H]3C[C@@H](O)CN3C3CCCCC3)n2)cc1 | Mtb cholesterol medium: -17.39%; Mtb glucose medium: -50.88% & 14.97%
* CNC(=O)CC1c2cccnc2C(=O)N1Cc1ccccc1 (stereo unspecified) | Mtb cholesterol medium: -0.1198%; Mtb glucose medium: 11.53%
* Cc1cc(C(=O)N2CC[C@H](N3CCOCC3)[C@H](CCCO)C2)c(C)n1C | Mtb cholesterol medium: -15.3%; Mtb glucose medium: -0.3554% & 12.46%
* Cc1cccc2cc(C(=O)N3CCN(S(=O)(=O)N(C)C)CC3)n(C)c12 | Mtb cholesterol medium: -3.532%; Mtb glucose medium: 5.588%
* Cc1cc(CNC(=O)NCc2ccccc2N2CCOCC2)no1 | Mtb cholesterol medium: 0.6811%; Mtb glucose medium: -1.302% & 8.167%
* Cc1ncsc1CCC(=O)N(C)Cc1nc2ccccc2n1C | Mtb cholesterol medium: -8.051%; Mtb glucose medium: -12.03%
* CC(NCc1cnc(N2CCN(C)CC2)nc1)c1ccc(F)cc1 (stereo unspecified) | Mtb cholesterol medium: 8.933%; Mtb glucose medium: -7.443%
* Cc1nnsc1C(=O)NCC1CCN(c2ccccn2)CC1 | Mtb cholesterol medium: 1.994%; Mtb glucose medium: -11.2%
* NC(=O)CN1CCC(NC(=O)N2CCCC2c2ccncc2)CC1 (stereo unspecified) | Mtb cholesterol medium: -8.572%; Mtb glucose medium: -3.046% & 14.4%
* CCN1CCN(c2ccc(CNC(=O)c3cc(C)on3)cn2)CC1 | Mtb cholesterol medium: 13.15%; Mtb glucose medium: 5.442%
* Cc1ccc(Cl)cc1NCc1nc2n(n1)CCCCC2 | Mtb cholesterol medium: -50.28%; Mtb glucose medium: -50.73%
* COc1ccccc1OCC(=O)NS(=O)(=O)c1cccnc1 | Mtb cholesterol medium: -0.4763%; Mtb glucose medium: -6.391%
* COCCn1ccc2c(C(=O)Nc3nc4c(s3)CCC4)cccc21 | Mtb cholesterol medium: 28.12%; Mtb glucose medium: 47.59%
* CCOCC(=O)NCCn1ccc(-c2ccccn2)n1 | Mtb cholesterol medium: 12.57%; Mtb glucose medium: 46.01%

Once more, the final 2:

- COCCn1ccc2c(C(=O)Nc3nc4c(s3)CCC4)cccc21 : Mtb cholesterol medium: 28.12%; Mtb glucose medium: 47.59%
- CCOCC(=O)NCCn1ccc(-c2ccccn2)n1 : Mtb cholesterol medium: 12.57%; Mtb glucose medium: 46.01%